These are yes or no findings as the source states them, for the method shown.
Target: FUS (FUSed in sarcoma), His-MBP-FUS (UniProt P35637)
Assay: co-IP

Amino acid sequences for entries named in this document (tags omitted). A change or cut given only in a name is not applied to a line headed by its entry.
UniProt P35637, whole entry: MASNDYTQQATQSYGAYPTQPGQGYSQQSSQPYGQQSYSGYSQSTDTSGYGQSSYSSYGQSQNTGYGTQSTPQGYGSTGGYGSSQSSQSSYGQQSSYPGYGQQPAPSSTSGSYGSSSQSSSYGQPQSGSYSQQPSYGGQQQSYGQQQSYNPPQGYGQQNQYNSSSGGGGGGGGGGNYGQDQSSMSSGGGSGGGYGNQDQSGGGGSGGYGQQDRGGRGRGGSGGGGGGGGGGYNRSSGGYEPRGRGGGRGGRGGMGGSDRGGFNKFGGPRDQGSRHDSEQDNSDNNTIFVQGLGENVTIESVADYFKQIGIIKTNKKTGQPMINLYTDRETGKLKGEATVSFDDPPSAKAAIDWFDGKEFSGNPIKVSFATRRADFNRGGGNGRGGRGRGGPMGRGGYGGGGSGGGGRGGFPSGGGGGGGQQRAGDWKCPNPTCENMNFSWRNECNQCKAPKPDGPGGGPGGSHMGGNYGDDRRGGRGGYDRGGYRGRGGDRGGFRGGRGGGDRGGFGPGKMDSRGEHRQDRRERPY
UniProt P00573, whole entry, looked up, stated change not applied: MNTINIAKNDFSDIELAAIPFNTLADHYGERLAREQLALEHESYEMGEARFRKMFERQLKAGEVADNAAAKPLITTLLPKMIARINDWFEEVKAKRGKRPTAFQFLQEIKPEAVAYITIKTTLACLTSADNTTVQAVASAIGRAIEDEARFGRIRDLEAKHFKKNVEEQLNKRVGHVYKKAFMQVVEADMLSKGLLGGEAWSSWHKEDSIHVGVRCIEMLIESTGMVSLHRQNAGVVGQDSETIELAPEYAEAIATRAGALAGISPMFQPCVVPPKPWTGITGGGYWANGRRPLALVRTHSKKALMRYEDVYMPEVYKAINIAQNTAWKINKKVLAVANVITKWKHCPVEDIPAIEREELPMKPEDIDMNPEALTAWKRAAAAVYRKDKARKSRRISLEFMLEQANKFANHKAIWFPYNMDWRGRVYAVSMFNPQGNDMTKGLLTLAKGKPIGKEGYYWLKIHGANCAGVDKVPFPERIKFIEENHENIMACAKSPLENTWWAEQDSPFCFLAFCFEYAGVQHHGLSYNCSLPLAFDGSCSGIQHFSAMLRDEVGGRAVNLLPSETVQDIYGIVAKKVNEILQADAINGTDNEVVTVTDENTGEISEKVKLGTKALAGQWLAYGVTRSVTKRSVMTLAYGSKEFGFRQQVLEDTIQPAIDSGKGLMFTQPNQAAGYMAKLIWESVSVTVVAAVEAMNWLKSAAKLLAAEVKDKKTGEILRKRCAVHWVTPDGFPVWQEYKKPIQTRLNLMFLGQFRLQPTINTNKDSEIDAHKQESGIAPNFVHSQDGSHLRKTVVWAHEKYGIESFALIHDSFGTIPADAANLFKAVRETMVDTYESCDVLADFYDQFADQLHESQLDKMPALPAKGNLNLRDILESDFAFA

“T7 phage RNA polymerase (P266L), 6xHis-tagged (from UniProt P00573 1-883) (enzyme)” was tested, and the binding was “no binding”.

Source: paper doi:10.1101/2022.08.11.503633
